The series is described as follows: Symmetric flow cell galvanostatic cycling. The note with it: 0.01 M in DMSO, over 40 cycles, 20 mA, Nafion 212. As for the experimental part: For the symmetric flow cell experiment, a flow cell with 3 layers of 250 μm carbon paper electrodes (AvCarb EP40A—they were received as thermally activated using a proprietary cycle) and 2 layers of Teflon gaskets were used in each half-side. Electrodes with an active area of 10 cm^2 were compressed by ˜33.3% in the assembled flow cell. Nafion 212 was selected as the membrane material. 25 mL of electrolyte (0.01 M of CVBH solution in DMSO) is used in each half-cell. This solution was prepared by oxidizing a 25 mL, 0.01M solution of CVBH from vanadium(iv) to vanadium(v) at 1.0 mA and mixing with a second 25 mL, 0.01 M solution of CVBH in the vanadium(iv) oxidation state (as synthesized). A peristaltic pump (Masterflex L/S Series) with silicon tubing (Masterflex, 1.6 mm inner diameter) drove the electrolyte through the flow cell at 80 mL min^−1.
On the strength of observations of high stability during static cell cycling, CVBH was investigated in a flow-battery architecture (FIG. 7A). Symmetric redox cycling of a 1:1 mixture of vanadium (iv/v) was carried out to probe the stability of the active species in a controlled manner. […] Measured UV-vis spectra were simulated using spectra of CVBH in the vanadium(iv) and vanadium(v) oxidation states as synthetic components to determine state of charge, as shown in FIG. 8. […]

The values that follow come from patent US11267830B2, “Flow battery and components thereof” (University of Massachusetts, priority 2017, dated 2022).

The molecule `O.O.O.O.O.O=C([O-])CN(O)CC(=O)[O-].O=C([O-])CN(O)CC(=O)[O-].[Ca].[V+4]` [CVBH, Calcium(ii) vanadium(iv)bis-hydroxyiminodiacetate pentahydrate] gave a charging capacity retained of approximately 83% and a discharging capacity retained of approximately 75%.
